For seven substances, binding results are on record in article PMC9964033.

Protein sequences, listed by entry. Tags and fused reporters are not part of them.
UniProt Q7L576: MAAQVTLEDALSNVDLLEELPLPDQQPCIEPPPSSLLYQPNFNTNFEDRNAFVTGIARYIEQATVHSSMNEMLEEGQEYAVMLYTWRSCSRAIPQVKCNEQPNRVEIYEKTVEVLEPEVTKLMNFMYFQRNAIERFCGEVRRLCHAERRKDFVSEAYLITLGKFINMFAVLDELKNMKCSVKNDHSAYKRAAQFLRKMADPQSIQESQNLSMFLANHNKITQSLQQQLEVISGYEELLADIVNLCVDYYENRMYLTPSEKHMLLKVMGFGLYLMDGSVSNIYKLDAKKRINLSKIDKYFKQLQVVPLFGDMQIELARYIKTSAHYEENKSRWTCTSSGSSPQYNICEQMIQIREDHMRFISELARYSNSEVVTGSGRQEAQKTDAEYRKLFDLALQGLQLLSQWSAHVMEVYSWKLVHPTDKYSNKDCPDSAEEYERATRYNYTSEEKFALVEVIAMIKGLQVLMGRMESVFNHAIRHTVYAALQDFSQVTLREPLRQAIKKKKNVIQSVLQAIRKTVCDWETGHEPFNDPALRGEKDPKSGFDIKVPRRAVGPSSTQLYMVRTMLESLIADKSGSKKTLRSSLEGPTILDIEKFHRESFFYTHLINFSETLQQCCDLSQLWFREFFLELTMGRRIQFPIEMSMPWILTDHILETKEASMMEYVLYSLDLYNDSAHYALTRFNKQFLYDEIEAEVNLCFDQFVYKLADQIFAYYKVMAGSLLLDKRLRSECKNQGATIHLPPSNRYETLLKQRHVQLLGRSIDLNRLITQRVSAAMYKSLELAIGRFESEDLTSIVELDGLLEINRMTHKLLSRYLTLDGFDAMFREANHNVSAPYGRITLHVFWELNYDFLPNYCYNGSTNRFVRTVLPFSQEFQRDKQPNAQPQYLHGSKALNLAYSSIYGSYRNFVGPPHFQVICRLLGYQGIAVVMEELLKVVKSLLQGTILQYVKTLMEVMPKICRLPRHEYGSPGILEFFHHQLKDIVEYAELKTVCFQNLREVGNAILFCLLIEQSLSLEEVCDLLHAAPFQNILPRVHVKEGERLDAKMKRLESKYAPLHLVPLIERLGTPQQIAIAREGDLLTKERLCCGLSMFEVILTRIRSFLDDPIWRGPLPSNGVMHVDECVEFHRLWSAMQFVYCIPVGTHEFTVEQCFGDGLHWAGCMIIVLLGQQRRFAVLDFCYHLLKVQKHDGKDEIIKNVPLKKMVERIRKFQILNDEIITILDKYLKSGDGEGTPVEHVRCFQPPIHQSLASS
UniProt Q7TMB8: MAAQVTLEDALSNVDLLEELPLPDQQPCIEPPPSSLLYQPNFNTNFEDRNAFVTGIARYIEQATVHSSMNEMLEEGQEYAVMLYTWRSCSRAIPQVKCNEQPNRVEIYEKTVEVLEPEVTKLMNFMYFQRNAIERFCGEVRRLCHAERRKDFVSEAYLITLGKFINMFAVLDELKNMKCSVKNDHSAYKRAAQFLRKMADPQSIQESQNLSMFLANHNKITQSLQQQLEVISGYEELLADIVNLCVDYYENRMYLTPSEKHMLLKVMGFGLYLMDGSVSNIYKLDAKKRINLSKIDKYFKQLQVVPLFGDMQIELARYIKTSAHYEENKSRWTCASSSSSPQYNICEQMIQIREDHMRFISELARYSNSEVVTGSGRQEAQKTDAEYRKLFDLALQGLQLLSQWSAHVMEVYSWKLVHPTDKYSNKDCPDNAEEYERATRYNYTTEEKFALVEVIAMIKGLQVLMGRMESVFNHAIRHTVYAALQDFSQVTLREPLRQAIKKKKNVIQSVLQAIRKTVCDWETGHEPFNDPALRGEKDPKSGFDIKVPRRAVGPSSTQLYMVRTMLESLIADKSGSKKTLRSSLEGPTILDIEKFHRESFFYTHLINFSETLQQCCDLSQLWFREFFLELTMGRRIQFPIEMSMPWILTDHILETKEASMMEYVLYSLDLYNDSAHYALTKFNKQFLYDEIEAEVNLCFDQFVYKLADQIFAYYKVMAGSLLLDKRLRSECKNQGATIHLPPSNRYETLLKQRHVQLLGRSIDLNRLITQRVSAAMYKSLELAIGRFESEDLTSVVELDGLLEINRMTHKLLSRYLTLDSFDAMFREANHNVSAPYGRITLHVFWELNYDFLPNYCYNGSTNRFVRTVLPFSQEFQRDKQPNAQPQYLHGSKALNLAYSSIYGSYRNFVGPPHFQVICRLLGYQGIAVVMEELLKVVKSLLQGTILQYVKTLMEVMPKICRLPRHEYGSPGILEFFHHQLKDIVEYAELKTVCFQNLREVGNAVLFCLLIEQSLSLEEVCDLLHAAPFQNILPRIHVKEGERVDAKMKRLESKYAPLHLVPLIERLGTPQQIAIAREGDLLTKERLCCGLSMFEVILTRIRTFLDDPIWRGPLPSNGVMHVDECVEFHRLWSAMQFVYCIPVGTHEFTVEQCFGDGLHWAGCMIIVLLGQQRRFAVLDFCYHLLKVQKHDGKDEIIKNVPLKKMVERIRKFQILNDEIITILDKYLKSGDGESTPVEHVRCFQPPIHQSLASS
UniProt P38919: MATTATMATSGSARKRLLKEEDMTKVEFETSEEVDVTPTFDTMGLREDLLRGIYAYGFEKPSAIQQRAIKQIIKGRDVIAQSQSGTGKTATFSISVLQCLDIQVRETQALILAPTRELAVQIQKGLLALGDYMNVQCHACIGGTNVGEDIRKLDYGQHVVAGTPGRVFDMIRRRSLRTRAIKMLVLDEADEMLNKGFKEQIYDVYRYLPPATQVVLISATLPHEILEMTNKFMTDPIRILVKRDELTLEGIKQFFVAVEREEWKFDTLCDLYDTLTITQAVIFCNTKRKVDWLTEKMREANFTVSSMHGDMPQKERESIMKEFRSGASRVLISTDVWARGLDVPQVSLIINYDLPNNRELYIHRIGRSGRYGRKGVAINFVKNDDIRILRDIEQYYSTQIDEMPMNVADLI
UniProt Q91VC3: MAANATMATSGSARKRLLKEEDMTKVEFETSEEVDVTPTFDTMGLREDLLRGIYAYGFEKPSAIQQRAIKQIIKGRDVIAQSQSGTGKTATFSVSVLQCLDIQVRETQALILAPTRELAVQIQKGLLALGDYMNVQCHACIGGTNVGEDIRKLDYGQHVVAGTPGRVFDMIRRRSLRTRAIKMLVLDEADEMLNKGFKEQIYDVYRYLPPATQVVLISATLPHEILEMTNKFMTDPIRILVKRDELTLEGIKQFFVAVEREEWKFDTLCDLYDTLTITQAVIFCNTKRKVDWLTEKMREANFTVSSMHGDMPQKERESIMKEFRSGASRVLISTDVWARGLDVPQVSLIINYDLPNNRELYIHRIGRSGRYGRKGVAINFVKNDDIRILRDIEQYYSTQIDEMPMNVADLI
UniProt P06730: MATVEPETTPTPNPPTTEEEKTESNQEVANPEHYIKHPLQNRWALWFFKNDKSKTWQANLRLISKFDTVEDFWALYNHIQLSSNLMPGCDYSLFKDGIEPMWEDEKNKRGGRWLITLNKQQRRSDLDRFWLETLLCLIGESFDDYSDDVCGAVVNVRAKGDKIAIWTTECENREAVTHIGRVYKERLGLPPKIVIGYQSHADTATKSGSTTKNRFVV

These are yes or no findings as the source states them, for the method shown. In cells and extracts the contact can be indirect. These calls come from enrichment with a bait or labelling near it, and not all partners need be listed. Where a sequence is shown, tags or fusion partners need not be part of it.

Assay [1] has as its target T1, CPEB3-GFP (cytoplasmic polyadenylation element binding protein 3, GFP-tagged), expressed in HEK293T (mouse) (UniProt Q7TN99).
T1 sequence: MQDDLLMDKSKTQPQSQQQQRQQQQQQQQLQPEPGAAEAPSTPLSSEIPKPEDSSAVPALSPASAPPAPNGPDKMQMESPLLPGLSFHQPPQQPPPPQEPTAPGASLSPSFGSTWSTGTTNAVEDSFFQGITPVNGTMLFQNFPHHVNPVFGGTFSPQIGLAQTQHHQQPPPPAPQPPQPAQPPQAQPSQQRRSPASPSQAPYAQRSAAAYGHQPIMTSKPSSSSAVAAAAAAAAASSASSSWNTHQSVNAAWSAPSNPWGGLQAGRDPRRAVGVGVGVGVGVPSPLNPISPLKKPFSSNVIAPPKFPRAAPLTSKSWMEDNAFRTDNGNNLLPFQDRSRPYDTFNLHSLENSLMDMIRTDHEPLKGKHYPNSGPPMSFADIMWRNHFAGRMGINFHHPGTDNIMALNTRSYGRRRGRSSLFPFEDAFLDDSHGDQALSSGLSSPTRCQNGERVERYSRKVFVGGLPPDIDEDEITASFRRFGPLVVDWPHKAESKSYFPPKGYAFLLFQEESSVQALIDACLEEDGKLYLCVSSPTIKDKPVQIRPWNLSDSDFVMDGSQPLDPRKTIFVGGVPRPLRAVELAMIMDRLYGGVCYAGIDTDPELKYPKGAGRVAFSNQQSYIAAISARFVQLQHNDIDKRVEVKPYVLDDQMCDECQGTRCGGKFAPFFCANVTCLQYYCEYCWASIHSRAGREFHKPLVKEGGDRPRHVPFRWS
Description: affinity purification with mass spectrometry; CPEB3-HA or CPEB3-GFP expressed in HEK293T under a CMV promoter, immunoprecipitated via the respective tag (HA-linked magnetic beads or GFP-Trap; RIPA + NEM lysate, overnight at 4 °C), on-bead trypsin digestion, LC-MS/MS; n = 5.

Assay [2] concerns the target T2, CPEB3-HA (cytoplasmic polyadenylation element binding protein 3, HA-tagged), expressed in HEK293T (mouse) (UniProt Q7TN99).
T2 sequence: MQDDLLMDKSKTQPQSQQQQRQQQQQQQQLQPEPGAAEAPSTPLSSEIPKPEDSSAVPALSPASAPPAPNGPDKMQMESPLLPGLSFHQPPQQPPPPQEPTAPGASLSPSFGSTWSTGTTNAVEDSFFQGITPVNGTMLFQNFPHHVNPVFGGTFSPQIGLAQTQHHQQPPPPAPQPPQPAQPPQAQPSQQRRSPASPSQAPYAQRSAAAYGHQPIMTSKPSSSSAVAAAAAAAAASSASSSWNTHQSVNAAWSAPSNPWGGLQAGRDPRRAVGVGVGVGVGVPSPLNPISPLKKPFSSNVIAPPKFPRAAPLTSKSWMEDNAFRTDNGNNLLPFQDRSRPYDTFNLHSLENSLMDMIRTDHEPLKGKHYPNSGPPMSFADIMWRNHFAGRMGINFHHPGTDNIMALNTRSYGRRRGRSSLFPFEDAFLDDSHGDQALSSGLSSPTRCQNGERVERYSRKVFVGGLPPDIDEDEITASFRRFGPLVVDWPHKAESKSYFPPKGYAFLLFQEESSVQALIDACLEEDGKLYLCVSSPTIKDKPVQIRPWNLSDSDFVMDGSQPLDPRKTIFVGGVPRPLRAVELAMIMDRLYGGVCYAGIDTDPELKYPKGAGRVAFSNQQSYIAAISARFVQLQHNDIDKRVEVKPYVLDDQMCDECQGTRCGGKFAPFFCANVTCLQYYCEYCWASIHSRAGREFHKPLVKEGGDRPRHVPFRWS
The assay is described as above.

Assay [3] concerns the target T3, CPEB3-HA expressed in mouse primary cortical neurons under a human synapsin promoter (mouse) (UniProt Q7TN99).
T3 sequence: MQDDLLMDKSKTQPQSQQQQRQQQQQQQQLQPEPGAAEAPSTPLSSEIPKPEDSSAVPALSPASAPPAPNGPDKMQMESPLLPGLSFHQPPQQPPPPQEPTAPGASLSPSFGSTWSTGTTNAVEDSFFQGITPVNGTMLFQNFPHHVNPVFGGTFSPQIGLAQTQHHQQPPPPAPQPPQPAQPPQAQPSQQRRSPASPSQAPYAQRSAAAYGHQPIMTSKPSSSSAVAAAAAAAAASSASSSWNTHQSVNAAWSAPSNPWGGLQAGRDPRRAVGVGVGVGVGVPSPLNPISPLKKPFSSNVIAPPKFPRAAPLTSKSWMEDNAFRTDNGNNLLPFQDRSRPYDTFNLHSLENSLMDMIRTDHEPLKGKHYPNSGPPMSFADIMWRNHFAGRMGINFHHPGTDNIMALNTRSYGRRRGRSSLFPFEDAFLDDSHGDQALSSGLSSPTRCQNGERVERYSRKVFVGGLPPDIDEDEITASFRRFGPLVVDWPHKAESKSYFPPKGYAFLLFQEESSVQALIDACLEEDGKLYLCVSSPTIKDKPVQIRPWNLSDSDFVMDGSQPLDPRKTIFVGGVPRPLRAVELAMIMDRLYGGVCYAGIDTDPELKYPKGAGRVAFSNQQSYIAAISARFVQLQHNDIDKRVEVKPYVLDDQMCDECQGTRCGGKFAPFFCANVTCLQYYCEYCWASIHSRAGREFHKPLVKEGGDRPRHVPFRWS
Kind of assay: affinity purification with mass spectrometry; CPEB3-HA expressed in mouse primary cortical neurons under a human synapsin promoter, immunoprecipitated via the HA tag, on-bead trypsin digestion, LC-MS/MS; three samples.

“CYFIP1 (HEK293T) (from UniProt Q7L576 1-1253)”: the binding result in assay [1] and in assay [2] was “binds” in each case.

With “CYFIP1 (mouse neurons) (from UniProt Q7TMB8 1-1253)”, the binding result in assay [3] is “binds”.

“Eukaryotic Translation Initiation Factor 4A3 (HEK293T) (from UniProt P38919 1-411)”: the binding entry in assay [1] and in assay [2] was “binds” throughout.

In the case of “Eukaryotic Translation Initiation Factor 4A3 (mouse neurons) (from UniProt Q91VC3 1-411)”, the binding result in assay [3] was “binds”.

With “Mago Nashi (HEK293T) (human (endogenous in HEK293T))”, the binding result in assay [1] and in assay [2] was “binds” throughout.

In the case of Mago Nashi (mouse neurons), the binding result in assay [3] is “binds”.

Turning to “eIF4e (HEK293T) (from UniProt P06730 1-217)”, the binding entry in assay [1] and in assay [2] was “binds” throughout.
